Reference: PMC3669415
Results are given in words; binding and its absence hold for the method and conditions named. For part of these data: Binding seen in cells or lysates may run through a third protein. Some binding calls cover weakened binding; strength is not graded here.

The chains behind the UniProt entries cited, without tags or fusion partners.
UniProt P61077: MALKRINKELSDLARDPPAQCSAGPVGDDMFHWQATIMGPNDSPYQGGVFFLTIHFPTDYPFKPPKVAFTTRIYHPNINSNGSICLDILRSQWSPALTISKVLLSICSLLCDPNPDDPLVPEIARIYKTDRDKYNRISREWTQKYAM
UniProt O14746: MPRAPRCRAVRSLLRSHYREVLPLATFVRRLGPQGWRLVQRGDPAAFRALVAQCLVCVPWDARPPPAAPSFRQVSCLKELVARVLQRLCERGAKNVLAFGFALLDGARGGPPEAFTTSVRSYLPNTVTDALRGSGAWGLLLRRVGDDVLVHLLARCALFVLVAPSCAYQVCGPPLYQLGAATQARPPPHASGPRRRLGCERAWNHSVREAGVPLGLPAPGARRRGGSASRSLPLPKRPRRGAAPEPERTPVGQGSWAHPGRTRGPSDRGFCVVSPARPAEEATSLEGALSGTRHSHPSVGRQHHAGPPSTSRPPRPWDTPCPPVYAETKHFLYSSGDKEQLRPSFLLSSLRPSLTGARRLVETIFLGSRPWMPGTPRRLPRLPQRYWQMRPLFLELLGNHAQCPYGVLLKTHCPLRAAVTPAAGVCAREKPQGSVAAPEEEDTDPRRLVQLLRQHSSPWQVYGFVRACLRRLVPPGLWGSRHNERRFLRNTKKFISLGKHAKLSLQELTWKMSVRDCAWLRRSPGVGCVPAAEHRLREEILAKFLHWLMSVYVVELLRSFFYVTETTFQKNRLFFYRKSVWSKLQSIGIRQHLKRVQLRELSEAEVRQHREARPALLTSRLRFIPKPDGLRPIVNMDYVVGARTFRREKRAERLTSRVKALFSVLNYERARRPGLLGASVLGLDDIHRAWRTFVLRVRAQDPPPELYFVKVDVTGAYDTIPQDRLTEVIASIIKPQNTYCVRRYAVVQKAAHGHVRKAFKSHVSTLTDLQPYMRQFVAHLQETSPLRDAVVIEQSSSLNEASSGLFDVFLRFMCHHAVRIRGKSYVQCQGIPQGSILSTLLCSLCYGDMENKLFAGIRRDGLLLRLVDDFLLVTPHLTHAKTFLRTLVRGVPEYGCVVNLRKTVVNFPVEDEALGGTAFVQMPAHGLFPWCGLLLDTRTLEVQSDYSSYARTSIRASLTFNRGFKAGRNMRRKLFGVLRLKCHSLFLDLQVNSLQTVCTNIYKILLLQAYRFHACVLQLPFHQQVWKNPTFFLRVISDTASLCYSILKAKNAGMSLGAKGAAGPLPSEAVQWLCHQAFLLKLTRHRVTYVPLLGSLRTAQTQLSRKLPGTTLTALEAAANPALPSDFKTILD

B1: chromosome 19 open reading frame 40 (C19orf40) (protein, UniProt Q9BTP7 1-215)
chain: MEKNPPDDTGPVHVPLGHIVANEKWRGSQLAQEMQGKIKLIFEDGLTPDFYLSNRCCILYVTEADLVAGNGYRKRLVRVRNSNNLKGIVVVEKTRMSEQYFPALQKFTVLDLGMVLLPVASQMEASCLVIQLVQEQTKEPSKNPLLGKKRALLLSEPSLLRTVQQIPGVGKVKAPLLLQKFPSIQQLSNASIGELEQVVGQAVAQQIHAFFTQPR
B2: chromosome 18 open reading frame 55 (C18orf55) (protein, UniProt Q9BVV7 1-248)
chain: MICTFLRAVQYTEKLHRSSAKRLLLPYIVLNKACLKTEPSLRCGLQYQKKTLRPRCILGVTQKTIWTQGPSPRKAKEDGSKQVSVHRSQRGGTAVPTSQKVKEAGRDFTYLIVVLFGISITGGLFYTIFKELFSSSSPSKIYGRALEKCRSHPEVIGVFGESVKGYGEVTRRGRRQHVRFTEYVKDGLKHTCVKFYIEGSEPGKQGTVYAQVKENPGSGEYDFRYIFVEIESYPRRTIIIEDNRSQDD

Assays:
[1] = target: FLAG-tagged UBE2D3 (human) (UniProt P61077); test: co-IP; HEK293T co-transfected with HA-hTERT and Flag-UBE2D3, lysed 24 hr after transfection; precipitated with anti-FLAG or anti-UBE2D3 and protein-A agarose overnight at 4°C, washed with immunoprecipitation buffer and 500 mM NaCl; blotted with anti-HA or anti-hTERT
[2] = target: human telomerase reverse transcriptase (hTERT), two-hybrid bait pGBKT-hTERT (human) (UniProt O14746); test: two-hybrid; Matchmaker Gold library screen: bait pGBKT-hTERT in Gold yeast mated with the Hep2R cDNA library in pGADT7; blue colonies on DDO/X/A patched onto QDO/X/A, 30°C

Molecule	binding [1]	binding [2]
HA-tagged hTERT (from UniProt O14746 1-1132) (enzyme)	binds	–
B1	–	binds
B2	–	binds
